Test results taken from PubChem BioAssay AID248 (DTP/NCI, 2004).
The list does not hold the whole screen: it is rich in T/C values a quarter to a half above the control, in often repeated tests (any T/C) and in doses without a T/C. Further doses and runs are listed elsewhere. T/C is the treated group as % of the vehicle group. Some entries give survivors of the animals treated and no T/C: the source files T/C as zero there, which appears to mark a toxic dose or a test without result, not a measured value. Some doses without a T/C left all or most animals alive at the check, yet need not have been tolerated: survival well below the control is almost never listed, so the zero probably covers shortened survival too. Counts of survivors are from the toxicity check (mostly the fifth day) where no day follows; animals may have died later. Schedules are NCI's codes, taken here to give the interval after Q, in days (D) or hours (H), and the number of doses after X. Some schedules carry Z or #; the key to these is not given. Where survival is the endpoint, the PubChem record calls one and a half times the control and up active, and a quarter to a half above the control has no call in these data; cut-offs in other NCI protocols can differ. Some T/C values are followed by the survivors on the day toxicity was checked, most often the fifth; without a count, all were alive then.

Tested on: L1210 leukemia ip in BDF1 mice, survival T/C
Assay: NCI In Vivo Anticancer Drug Screen. Data for tumor model L1210 Leukemia (intraperitoneal) in B6D2F1 (BDF1) mice
Settings: T/C endpoint: mean survival time, higher T/C = longer survival
[1] = dose: 400.0 mg/kg/injection, schedule: Q04DX003 (ip), vehicle: saline with Tween-80
[2] = dose: 100.0 mg/kg/injection, schedule: Q01DX001 (ip), vehicle: saline
[3] = dose: 200.0 mg/kg/injection, schedule: Q01DX001 (ip), vehicle: saline
[4] = dose: 400.0 mg/kg/injection, schedule: Q01DX001 (ip), vehicle: saline
[5] = dose: 400.0 mg/kg/injection, schedule: Q04DX003 (ip), vehicle: saline
[6] = dose: 400.0 mg/kg/injection, schedule: Q04DX003 (ip), vehicle: Klucel (hydroxypropylcellulose) (HPC)
[7] = dose: 400.0 mg/kg/injection, schedule: Q01DX009 (ip), vehicle: Klucel (hydroxypropylcellulose) (HPC)

Cc1cccc2c(CBr)cc(=O)[nH]c12
survivor count (dose: 100.0 mg/kg/injection, schedule: Q04DX003 (ip), vehicle: saline with Tween-80): 3 of 6 | survivor count (dose: 200.0 mg/kg/injection, schedule: Q04DX003 (ip), vehicle: saline with Tween-80): 0 of 6 | survivor count [1]: 0 of 6

COc1ccc2c(c1)c1c(C)c3cnccc3c(C)c1n2C
T/C [2]: 127 % of control | T/C (dose: 175.0 mg/kg/injection, schedule: Q01DX001 (ip), vehicle: saline): 138 % of control | T/C [3]: 144 % of control | T/C [4]: 147 % of control [3 of 4 alive] | T/C (dose: 600.0 mg/kg/injection, schedule: Q01DX001 (ip), vehicle: saline): 125 % of control [4 of 6 alive]

Cc1cnc2c(N)[nH]nc2n1
survivor count (dose: 100.0 mg/kg/injection, schedule: Q01DX009 (ip), vehicle: Klucel (hydroxypropylcellulose) (HPC)): 3 of 6

CC(=O)SC(C)CC(=O)O (stereo unspecified)
survivor count [5]: 1 of 6

CC(C)OCCCN=C(N)N
survivor count (dose: 100.0 mg/kg/injection, schedule: Q01DX009 (ip), vehicle: saline): 1 of 6 | survivor count (dose: 100.0 mg/kg/injection, schedule: Q04DX003 (ip), vehicle: saline): 5 of 6 | survivor count (dose: 200.0 mg/kg/injection, schedule: Q01DX009 (ip), vehicle: saline): 0 of 6 | survivor count (dose: 200.0 mg/kg/injection, schedule: Q04DX003 (ip), vehicle: saline): 0 of 6 | survivor count [5]: 0 of 6

BrC[P+](c1ccccc1)(c1ccccc1)c1ccccc1
survivor count (dose: 25.0 mg/kg/injection, schedule: Q04DX002 (ip), vehicle: saline): 0 of 3 | survivor count (dose: 50.0 mg/kg/injection, schedule: Q04DX002 (ip), vehicle: saline): 0 of 3 | survivor count (dose: 100.0 mg/kg/injection, schedule: Q04DX002 (ip), vehicle: saline): 0 of 3 | survivor count (dose: 200.0 mg/kg/injection, schedule: Q04DX002 (ip), vehicle: saline): 0 of 3 | survivor count (dose: 400.0 mg/kg/injection, schedule: Q04DX002 (ip), vehicle: saline): 0 of 3

COc1ccc(C[n+]2cccc(NC(=O)COc3ccc(Cl)c(Cl)c3)c2)cc1
survivor count (dose: 200.0 mg/kg/injection, schedule: Q04DX003 (ip), vehicle: Klucel (hydroxypropylcellulose) (HPC)): 2 of 6 | survivor count [6]: 0 of 6

COc1ccc(/C(C#N)=C/c2ccc(N(C)CCC#N)cc2)cc1
survivor count (dose: 50.0 mg/kg/injection, schedule: Q01DX009 (ip), vehicle: Klucel (hydroxypropylcellulose) (HPC)): 0 of 6

CC(C)(O)C(O)c1ccccc1 (stereo unspecified)
survivor count (dose: 400.0 mg/kg/injection, schedule: Q01DX009 (ip), vehicle: saline): 2 of 6

O=[N+]([O-])c1cc(Br)ccc1O
survivor count [5]: 1 of 6

O=S(=O)(F)c1ccc(Cl)cc1
survivor count [1]: 0 of 3

COC(=O)N/N=C/c1ccccc1Cl
survivor count [7]: 2 of 6

COc1ccc(OC)c(NC(=O)c2c(Br)c(Br)c(Br)c(Br)c2C(=O)O)c1
survivor count [7]: 1 of 6

O=C1C(=O)c2ccccc2C(O)=C1CC=C1CCCCC1
survivor count (dose: 400.0 mg/kg/injection, schedule: Q01DX009 (ip), vehicle: water): 0 of 6

COc1cc(/C=C(/C)[N+](=O)[O-])c([N+](=O)[O-])cc1OC
survivor count [4]: 2 of 4

CCN(CC)N=Nc1ccccc1-c1nc(N)c2ccccc2n1
survivor count [6]: 1 of 6

CC(C)N=C(NC(C)C)N1CC1
survivor count (dose: 80.0 mg/kg/injection, schedule: Q01DX001 (ip), vehicle: saline): 2 of 7 | survivor count [2]: 1 of 6 | survivor count [3]: 0 of 6 | survivor count [4]: 0 of 6

Nc1ncnc(N)c1[N+](=O)[O-]
survivor count (dose: 250.0 mg/kg/injection, schedule: Q01DX Z (ip), vehicle: methylcellulose (MC)): 3 of 6 | survivor count (dose: 500.0 mg/kg/injection, schedule: Q01DX Z (ip), vehicle: methylcellulose (MC)): 0 of 6

ClCCN(CC#CCCCC#CCN(CCCl)CCCl)CCCl
survivor count [3]: 3 of 6 | survivor count [4]: 0 of 6

O=C(O)COc1ccc(Cl)c2ccccc12
survivor count (dose: 400.0 mg/kg/injection, schedule: Q04DX002 (ip), vehicle: Klucel (hydroxypropylcellulose) (HPC)): 1 of 3

O=C(O)c1cc2ccccc2c2cc(C(F)(F)F)ccc12
survivor count (dose: 300.0 mg/kg/injection, schedule: Q01DX001 (ip), vehicle: saline): 2 of 6
